Assay [1] concerns the target N-terminally Flag- and HA-tagged cyclin E1 (cyclin E1^Ntag knock-in allele) (mouse) (UniProt Q61457). The experiment in a line: co-IP; anti-Flag immunoprecipitation from spleens and thymuses of Cdk2+/+/cyclin E1 Ntag/Ntag (KI) and Cdk2-/-/cyclin E1 Ntag/Ntag mice, wild-type mice as control, immunoblot. (In western blotting, separated proteins are transferred to a membrane and probed.)

By UniProt entry, the sequences of proteins in these tests, tags left out. Where a name states a change or a piece, a line headed by the entry shows the natural chain unless it says otherwise.
UniProt Q96GY3: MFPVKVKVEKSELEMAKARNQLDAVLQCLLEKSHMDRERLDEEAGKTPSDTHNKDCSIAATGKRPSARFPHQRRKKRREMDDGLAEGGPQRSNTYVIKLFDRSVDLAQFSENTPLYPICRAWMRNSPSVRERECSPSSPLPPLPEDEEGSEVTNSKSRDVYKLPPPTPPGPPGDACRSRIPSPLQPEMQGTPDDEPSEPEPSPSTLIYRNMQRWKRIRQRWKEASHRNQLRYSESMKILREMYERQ
UniProt P24860: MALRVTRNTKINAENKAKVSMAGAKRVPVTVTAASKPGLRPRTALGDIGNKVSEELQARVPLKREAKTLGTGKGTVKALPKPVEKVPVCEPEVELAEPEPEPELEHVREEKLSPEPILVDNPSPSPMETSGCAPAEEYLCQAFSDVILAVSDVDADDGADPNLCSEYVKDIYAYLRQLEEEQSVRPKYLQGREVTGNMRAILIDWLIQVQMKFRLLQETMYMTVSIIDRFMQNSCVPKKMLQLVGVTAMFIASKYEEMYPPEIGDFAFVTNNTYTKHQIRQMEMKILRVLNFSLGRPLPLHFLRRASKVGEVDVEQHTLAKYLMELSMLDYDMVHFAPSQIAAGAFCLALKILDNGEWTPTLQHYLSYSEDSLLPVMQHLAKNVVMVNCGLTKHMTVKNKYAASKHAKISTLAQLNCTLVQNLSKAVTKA
UniProt P51943: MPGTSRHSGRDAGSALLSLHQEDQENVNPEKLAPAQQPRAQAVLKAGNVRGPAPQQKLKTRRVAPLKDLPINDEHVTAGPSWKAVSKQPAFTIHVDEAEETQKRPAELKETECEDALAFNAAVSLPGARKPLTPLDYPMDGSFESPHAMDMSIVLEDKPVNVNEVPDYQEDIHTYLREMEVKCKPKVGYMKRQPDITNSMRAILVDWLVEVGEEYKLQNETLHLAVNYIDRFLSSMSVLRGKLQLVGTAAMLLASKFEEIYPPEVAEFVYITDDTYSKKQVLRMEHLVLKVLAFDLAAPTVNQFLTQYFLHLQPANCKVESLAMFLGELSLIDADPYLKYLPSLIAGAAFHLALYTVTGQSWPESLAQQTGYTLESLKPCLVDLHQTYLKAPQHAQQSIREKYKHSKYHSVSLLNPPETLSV
UniProt Q08999: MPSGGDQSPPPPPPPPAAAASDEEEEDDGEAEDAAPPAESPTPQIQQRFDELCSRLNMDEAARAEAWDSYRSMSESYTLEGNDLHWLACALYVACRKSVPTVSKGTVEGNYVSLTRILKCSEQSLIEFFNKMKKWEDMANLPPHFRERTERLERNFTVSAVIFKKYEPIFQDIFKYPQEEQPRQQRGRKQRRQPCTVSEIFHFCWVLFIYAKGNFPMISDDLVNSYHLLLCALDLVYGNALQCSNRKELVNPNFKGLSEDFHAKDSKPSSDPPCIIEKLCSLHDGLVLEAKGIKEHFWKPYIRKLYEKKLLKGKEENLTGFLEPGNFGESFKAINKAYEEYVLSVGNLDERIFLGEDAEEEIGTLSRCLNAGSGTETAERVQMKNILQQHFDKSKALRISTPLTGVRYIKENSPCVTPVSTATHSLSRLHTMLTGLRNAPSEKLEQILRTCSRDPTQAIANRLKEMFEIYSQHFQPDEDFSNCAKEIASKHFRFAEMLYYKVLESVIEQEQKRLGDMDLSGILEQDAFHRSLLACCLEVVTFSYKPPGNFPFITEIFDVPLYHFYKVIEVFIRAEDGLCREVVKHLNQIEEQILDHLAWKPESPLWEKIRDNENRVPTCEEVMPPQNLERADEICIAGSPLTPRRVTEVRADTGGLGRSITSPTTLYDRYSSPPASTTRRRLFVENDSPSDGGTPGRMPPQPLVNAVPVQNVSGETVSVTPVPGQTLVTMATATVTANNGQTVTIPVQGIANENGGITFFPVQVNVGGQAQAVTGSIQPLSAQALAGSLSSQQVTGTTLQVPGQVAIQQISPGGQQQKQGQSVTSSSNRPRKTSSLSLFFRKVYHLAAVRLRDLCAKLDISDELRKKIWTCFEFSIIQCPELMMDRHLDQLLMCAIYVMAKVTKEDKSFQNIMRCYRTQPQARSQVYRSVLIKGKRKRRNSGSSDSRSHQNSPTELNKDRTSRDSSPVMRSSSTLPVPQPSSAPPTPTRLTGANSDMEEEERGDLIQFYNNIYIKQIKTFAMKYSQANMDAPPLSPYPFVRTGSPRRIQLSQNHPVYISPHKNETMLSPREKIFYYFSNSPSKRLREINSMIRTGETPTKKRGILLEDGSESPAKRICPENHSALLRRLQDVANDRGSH
UniProt Q8CGW9: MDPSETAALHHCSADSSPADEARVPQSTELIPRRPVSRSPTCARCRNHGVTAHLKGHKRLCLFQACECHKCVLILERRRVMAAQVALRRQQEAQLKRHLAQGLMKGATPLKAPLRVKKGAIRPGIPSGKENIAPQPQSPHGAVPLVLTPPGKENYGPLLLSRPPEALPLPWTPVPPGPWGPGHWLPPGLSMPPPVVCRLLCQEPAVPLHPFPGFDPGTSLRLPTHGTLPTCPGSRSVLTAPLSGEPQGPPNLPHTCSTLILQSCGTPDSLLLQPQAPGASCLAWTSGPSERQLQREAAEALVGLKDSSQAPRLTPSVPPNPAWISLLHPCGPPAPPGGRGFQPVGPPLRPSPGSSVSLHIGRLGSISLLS
UniProt P11440: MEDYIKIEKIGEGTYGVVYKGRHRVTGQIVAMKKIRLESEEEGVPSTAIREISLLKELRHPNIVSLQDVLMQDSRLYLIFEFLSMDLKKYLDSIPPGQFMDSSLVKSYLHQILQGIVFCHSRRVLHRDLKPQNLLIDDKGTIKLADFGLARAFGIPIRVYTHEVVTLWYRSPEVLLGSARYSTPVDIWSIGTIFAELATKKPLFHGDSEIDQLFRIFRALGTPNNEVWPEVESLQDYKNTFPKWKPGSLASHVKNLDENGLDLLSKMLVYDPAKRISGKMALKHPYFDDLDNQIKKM
UniProt P10244: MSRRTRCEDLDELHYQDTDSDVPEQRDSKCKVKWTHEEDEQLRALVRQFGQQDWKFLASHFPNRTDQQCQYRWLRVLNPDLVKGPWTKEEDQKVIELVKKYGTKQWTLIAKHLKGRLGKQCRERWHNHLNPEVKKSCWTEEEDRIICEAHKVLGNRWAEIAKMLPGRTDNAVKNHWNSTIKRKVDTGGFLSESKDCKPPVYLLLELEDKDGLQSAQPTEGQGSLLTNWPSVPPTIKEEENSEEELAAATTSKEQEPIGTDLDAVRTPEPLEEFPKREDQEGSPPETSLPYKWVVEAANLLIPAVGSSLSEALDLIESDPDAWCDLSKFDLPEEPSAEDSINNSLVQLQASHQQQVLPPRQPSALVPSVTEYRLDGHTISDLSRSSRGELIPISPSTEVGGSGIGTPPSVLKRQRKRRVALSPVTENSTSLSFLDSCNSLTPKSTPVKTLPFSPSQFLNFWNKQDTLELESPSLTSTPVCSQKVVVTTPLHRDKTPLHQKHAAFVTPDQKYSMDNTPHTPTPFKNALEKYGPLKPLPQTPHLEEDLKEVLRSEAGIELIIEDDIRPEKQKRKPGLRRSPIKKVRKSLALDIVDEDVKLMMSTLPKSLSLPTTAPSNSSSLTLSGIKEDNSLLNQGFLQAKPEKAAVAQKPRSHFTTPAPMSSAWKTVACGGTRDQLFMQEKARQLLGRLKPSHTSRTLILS

The target in assay [2] is Lin37, human (human (endogenous in T98G)) (UniProt Q96GY3). In words: co-IP; T98G cells transfected with HA-p130 WT or PM, with or without HA-Cdk2 and Myc-cyclin E1, lysed 24 hrs after transfection; anti-Lin37 immunoprecipitation (IgG control), immunoblot.
Assay [3] deals with cyclin E1 (endogenous wild-type, mouse) (mouse (endogenous in mouse organs and MEFs)) (UniProt Q61457). In words: co-IP; Cdk2 or Mybl1 immunoprecipitated from lysates of mouse testes, immunoblot.
Assay [4] deals with cyclin B1, mouse (mouse (endogenous in spleen)) (UniProt P24860). In words: co-IP; cyclins D1, A2 or B1 immunoprecipitated from lysates of wild-type or Cdk2-/- spleens, immunoblot.
The target of assay [5] is cyclin A2, mouse (mouse (endogenous in spleen)) (UniProt P51943). The assay is described as above.
For assay [6], the target named is Lin37, human (human (endogenous in T98G)) (UniProt Q96GY3). In words: co-IP; T98G cells serum starved for 72 hrs, stimulated with 20% FBS with 0.2% DMSO, harvested at time-points; anti-Lin37 immunoprecipitates immunoblotted.
Assay [7] has the same target. In words: co-IP; T98G cells serum starved for 72 hrs, stimulated with 20% FBS with 20 μM CVT-313, harvested at time-points; anti-Lin37 immunoprecipitates immunoblotted.

These are yes or no findings as the source states them, for the method shown. In cells and extracts the contact can be indirect. Some results given as binding are weak or reduced against the parent protein; the word gives no strength.

For “Cdk5, mouse (from UniProt P49615 1-292) (enzyme)”, the binding result in assay [1] was “binds”. For “HA-tagged wild-type p130 (from UniProt Q08999 1-1139)”, the binding entry in assay [2] is on record as “binds”.

In the case of “Dmrtc2, mouse (endogenous) (from UniProt Q8CGW9 1-370)”, the binding result in assay [3] is given as “binds”. As for “Cdk1, mouse (from UniProt P11440 1-297) (enzyme)”, the binding entry in assay [4], in assay [5] and in assay [1] was “binds” each time.

For “B-Myb, human (from UniProt P10244 1-700)”, the binding result in assay [6] is “binds”. For “p130, human (from UniProt Q08999 1-1139)”, the binding result in assay [7] and in assay [6] was “binds” throughout.

(Values after article PMC5102403.)
